Source: the supplement of paper PMC11006884
This list holds what a sample rich in targets with a hit left over. Single values of this set are uncertain. This is a selection; strong and weak results do not stand in their true shares.

Protein sequences, listed by entry. Tags and fused reporters are not part of them. Lines headed by an entry give the natural chain unless they say otherwise; changes in a name come on top.
UniProt Q5MNZ6: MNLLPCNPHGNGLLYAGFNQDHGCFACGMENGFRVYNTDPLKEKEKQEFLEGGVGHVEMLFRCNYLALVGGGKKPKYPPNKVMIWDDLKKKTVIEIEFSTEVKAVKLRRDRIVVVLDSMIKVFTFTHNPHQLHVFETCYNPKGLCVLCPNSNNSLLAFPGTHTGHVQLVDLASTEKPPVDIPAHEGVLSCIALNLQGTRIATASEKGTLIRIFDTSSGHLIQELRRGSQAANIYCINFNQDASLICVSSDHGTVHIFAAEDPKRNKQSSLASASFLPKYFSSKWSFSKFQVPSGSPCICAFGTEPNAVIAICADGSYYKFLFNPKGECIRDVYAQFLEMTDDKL
UniProt Q6GMV3: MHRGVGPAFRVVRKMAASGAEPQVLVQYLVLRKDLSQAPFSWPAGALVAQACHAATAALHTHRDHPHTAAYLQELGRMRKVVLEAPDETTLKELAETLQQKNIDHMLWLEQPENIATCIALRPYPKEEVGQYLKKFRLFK
UniProt Q6NSI4, whole entry: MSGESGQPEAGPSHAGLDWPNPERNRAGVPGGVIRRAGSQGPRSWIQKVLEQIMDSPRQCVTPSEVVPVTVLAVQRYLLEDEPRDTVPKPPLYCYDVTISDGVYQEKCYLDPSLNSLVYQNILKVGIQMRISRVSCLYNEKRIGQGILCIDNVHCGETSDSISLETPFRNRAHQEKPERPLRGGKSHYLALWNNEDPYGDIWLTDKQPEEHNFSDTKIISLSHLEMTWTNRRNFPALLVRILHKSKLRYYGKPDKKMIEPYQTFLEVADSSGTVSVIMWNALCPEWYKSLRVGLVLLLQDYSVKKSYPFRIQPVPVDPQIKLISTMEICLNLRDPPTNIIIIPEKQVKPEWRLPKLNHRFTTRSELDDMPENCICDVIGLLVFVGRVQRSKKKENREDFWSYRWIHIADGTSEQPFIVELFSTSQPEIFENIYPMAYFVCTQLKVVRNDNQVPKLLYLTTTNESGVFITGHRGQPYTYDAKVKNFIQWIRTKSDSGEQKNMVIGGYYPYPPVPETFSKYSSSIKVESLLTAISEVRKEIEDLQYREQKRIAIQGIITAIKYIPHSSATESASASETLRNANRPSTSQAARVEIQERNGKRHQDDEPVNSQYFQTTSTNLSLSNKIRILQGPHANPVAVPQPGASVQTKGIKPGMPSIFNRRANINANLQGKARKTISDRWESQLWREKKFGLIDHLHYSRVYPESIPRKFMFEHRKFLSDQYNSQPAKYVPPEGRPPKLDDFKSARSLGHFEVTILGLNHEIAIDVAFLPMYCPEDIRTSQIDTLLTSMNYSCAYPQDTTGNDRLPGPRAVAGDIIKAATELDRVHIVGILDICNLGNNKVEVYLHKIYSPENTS
UniProt Q6PI48: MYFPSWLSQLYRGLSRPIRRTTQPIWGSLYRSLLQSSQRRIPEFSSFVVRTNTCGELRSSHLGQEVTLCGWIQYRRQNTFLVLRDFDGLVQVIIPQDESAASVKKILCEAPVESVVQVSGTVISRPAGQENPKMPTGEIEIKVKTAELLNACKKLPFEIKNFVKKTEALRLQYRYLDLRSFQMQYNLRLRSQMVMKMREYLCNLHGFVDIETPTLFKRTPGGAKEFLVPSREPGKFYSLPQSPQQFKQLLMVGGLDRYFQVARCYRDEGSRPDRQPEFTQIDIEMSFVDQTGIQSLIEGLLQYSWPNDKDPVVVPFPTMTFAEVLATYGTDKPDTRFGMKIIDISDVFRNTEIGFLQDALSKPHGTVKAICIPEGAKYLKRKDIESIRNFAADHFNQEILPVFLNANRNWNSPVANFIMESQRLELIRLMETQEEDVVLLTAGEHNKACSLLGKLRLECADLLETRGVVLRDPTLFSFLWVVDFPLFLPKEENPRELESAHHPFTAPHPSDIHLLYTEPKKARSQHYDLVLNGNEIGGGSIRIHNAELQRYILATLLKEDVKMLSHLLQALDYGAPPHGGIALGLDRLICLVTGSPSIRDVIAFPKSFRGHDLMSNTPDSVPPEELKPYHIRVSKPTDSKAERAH
UniProt Q66PJ3: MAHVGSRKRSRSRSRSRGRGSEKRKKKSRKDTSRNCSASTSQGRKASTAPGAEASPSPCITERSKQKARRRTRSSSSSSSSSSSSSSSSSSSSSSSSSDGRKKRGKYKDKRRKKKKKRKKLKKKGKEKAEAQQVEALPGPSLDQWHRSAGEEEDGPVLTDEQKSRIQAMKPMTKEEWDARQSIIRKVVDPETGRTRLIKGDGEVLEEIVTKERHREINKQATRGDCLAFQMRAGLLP
UniProt Q6I9Y2: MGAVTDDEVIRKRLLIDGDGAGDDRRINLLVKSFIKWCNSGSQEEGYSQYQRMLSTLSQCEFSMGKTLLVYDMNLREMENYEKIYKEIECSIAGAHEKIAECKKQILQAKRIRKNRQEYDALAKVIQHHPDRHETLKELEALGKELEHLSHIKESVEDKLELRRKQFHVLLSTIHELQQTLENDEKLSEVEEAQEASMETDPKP
UniProt Q5T200: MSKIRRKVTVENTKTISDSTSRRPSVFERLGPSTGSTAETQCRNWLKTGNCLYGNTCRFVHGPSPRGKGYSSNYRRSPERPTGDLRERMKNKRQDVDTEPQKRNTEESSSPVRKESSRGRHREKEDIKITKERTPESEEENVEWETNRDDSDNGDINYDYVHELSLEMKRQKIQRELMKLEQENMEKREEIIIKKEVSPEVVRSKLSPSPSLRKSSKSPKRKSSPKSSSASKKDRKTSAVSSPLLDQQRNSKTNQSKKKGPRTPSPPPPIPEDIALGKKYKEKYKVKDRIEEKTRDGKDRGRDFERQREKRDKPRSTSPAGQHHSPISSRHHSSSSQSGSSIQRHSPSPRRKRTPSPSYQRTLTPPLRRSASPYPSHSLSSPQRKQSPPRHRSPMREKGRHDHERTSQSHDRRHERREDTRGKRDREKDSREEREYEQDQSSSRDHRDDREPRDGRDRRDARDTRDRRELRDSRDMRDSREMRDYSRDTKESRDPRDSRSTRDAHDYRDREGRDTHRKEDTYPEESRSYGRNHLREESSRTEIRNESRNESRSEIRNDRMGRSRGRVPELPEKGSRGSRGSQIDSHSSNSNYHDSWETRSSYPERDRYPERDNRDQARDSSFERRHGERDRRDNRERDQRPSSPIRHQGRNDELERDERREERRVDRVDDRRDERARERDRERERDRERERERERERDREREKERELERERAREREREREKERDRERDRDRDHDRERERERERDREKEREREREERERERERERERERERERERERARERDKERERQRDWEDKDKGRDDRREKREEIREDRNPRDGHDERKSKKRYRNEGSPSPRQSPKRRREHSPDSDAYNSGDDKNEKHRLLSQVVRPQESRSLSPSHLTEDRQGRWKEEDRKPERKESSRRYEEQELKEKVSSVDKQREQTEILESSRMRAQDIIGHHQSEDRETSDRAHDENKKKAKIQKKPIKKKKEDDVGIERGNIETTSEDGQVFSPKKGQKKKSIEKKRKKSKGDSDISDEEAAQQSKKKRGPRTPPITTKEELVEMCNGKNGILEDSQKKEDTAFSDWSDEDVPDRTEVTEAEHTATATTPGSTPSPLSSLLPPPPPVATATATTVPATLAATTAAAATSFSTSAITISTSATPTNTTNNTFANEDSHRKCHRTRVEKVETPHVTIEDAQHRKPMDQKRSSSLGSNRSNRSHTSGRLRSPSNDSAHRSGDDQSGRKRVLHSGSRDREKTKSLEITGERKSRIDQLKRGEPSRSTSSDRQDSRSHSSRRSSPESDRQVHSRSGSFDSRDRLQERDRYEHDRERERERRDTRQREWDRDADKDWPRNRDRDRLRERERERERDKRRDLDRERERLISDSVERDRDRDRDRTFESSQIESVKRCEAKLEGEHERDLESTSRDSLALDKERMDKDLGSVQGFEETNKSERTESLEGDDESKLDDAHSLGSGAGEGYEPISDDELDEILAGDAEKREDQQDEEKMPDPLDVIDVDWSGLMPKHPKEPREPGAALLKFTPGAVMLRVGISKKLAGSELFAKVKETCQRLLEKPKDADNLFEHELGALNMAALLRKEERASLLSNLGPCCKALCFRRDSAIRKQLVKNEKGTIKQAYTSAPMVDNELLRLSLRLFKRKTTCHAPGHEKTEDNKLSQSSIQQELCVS
UniProt Q5W5X9: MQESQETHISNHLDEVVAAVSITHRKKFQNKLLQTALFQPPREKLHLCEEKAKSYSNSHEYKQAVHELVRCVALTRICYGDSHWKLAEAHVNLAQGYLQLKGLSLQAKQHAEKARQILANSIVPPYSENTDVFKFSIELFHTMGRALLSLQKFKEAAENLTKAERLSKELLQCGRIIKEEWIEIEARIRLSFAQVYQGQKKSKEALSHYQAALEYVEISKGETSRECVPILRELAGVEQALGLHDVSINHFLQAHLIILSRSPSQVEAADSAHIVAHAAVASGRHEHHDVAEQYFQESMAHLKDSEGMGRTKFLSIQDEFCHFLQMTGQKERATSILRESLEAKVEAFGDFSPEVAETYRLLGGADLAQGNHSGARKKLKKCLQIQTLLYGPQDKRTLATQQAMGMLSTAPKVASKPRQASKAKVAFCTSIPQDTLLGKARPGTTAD
UniProt Q6P9B9, whole entry, looked up: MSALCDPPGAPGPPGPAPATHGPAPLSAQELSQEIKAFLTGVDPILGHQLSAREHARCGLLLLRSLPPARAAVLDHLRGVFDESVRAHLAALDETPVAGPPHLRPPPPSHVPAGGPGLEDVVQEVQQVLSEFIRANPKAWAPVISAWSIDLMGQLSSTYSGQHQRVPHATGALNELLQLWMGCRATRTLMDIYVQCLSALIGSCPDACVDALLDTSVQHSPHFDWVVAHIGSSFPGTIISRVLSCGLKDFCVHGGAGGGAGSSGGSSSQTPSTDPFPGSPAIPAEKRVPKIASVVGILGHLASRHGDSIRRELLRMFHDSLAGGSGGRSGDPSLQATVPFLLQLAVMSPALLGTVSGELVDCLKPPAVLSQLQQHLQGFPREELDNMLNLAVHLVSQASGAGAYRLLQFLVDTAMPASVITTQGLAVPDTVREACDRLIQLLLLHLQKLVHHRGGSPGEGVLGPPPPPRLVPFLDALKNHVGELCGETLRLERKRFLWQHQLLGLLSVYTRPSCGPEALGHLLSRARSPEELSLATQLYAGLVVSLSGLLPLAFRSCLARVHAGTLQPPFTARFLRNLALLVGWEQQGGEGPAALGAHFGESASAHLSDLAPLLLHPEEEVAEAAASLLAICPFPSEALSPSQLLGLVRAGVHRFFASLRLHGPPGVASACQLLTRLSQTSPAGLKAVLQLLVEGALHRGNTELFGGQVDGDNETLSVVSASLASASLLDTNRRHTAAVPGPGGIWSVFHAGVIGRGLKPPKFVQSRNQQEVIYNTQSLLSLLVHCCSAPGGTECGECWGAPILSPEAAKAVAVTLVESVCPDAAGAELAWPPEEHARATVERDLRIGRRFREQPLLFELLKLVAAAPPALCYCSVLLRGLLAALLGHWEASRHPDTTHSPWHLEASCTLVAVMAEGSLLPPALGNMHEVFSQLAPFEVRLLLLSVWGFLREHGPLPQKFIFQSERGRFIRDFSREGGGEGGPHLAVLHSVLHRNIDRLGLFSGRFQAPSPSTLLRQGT
UniProt Q6NXT6: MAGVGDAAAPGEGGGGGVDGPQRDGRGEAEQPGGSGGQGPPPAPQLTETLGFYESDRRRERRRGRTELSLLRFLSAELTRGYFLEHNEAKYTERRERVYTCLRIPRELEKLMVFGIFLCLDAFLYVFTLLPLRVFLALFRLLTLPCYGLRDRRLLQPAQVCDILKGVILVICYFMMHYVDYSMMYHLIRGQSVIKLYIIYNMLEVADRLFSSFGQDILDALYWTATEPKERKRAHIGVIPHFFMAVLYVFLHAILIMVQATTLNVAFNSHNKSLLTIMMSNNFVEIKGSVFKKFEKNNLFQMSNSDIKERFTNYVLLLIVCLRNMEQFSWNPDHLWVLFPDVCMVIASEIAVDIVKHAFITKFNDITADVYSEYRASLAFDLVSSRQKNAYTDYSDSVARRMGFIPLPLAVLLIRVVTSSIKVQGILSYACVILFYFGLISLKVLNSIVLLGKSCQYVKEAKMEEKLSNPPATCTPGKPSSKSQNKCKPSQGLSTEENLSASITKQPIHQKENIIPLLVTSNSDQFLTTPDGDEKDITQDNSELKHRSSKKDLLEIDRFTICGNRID
UniProt Q5VT66: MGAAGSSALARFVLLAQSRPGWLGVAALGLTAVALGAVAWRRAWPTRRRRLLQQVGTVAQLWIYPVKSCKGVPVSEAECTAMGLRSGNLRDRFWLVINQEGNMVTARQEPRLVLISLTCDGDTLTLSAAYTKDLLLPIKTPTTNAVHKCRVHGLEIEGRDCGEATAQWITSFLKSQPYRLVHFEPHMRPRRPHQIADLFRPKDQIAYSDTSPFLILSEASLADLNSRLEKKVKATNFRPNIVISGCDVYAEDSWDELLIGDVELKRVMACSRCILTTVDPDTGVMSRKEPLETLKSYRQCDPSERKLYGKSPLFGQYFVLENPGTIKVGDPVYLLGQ

compound: COC(=O)/C=C/c1ccccc1 [methyl cinnamate]; assay: log2 ratio of iodoacetamide-alkyne labeling of the cysteine site, DMSO over compound (competition); higher = stronger covalent engagement of the cysteine by the compound, active = 1 or more; details: 500 µM; treatment time 1 h; system: HEK293T cell lysate
How it was run: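 HEK293T lysate (2 mg/mL) was incubated with electrophile (500 µM) or vehicle for 1 h at ambient temperature and then with iodoacetamide alkyne for 1 h. Labelled proteins were clicked to sCIP-TMT reagents, pooled, digested, enriched on streptavidin and measured by Orbitrap Eclipse LC-MS/MS with FAIMS, with FragPipe quantification. The per-cysteine log2 competition ratio is mean control-channel reporter intensity over mean compound-channel reporter intensity. Across three replicates with duplicate channels, cysteines quantified in only one replicate were excluded.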

Row | Target | log2 ratio of iodoacetamide-alkyne labeling
1 | UniProt Q5MNZ6_C6 | inactive: 0.16
2 | UniProt Q6GMV3_C118 | inactive: -0.249
3 | MAP1S C342 (UniProt Q66K74) | inactive: -0.0209
4 | UniProt Q6ZSZ5_C699 | inactive: 0.217
5 | NCAPH2 C342 (UniProt Q6IBW4) | inactive: 0.144
6 | UniProt Q5H9R7_C844 | inactive: -0.0134
7 | UniProt Q6NSI4_C60 | inactive: 0.138
8 | DARS2 C590 (UniProt Q6PI48) | inactive: 0.0339
9 | ARID2 C1549 (UniProt Q68CP9) | inactive: 0.265
10 | CNNM4 C736 (UniProt Q6P4Q7) | inactive: 0.209
11 | ARL6IP4 C220 (UniProt Q66PJ3) | inactive: 0.368
12 | RNF20 C905 (UniProt Q5VTR2) | inactive: 0.345
13 | THOC7 C38 (UniProt Q6I9Y2) | inactive: 0.447
14 | NIPBL C573 (UniProt Q6KC79) | inactive: 0.164
15 | ZNF770 C369 (UniProt Q6IQ21) | inactive: 0.114
16 | TAF2 C1093 (UniProt Q6P1X5) | inactive: 0.0841
17 | RPRD2 C903 (UniProt Q5VT52) | inactive: 0.288
18 | ZC3H13 C1666 (UniProt Q5T200) | inactive: 0.307
19 | FAM117B C244 (UniProt Q6P1L5) | inactive: 0.28

Part of the list above, field by field:
ZNF770 C369 (UniProt Q6IQ21)
  log2 ratio of iodoacetamide-alkyne labeling: inactive: 0.114
FAM117B C244 (UniProt Q6P1L5)
  log2 ratio of iodoacetamide-alkyne labeling: inactive: 0.28

Continuation:

Row | Target | log2 ratio of iodoacetamide-alkyne labeling
20 | TJAP1 C196 (UniProt Q5JTD0) | inactive: -0.0219
21 | UniProt Q5THK1_C92 | inactive: 0.578
22 | CTR9 C511 (UniProt Q6PD62) | inactive: 0.0056
23 | EDC4 C976 (UniProt Q6P2E9) | inactive: 0.314
24 | CEP170 C1049 (UniProt Q5SW79) | inactive: -0.0584
25 | UniProt Q5W5X9_C428 | inactive: 0.264
26 | INTS5 C58 (UniProt Q6P9B9) | inactive: 0.0484
27 | CEP135 C316 (UniProt Q66GS9) | inactive: -0.167
28 | UBR4 C1458 (UniProt Q5T4S7) | inactive: 0.181
29 | LARP1 C953 (UniProt Q6PKG0) | inactive: 0.11
30 | UniProt Q5JSZ5_C1610 | inactive: -0.0413
31 | TAPT1 C562 (UniProt Q6NXT6) | inactive: 0.133
32 | CEP170 C30 (UniProt Q5SW79) | inactive: 0.356
33 | MAP1S C440 (UniProt Q66K74) | inactive: -0.0266
34 | NIPBL C661 (UniProt Q6KC79) | inactive: 0.0603
35 | NOM1 C65 (UniProt Q5C9Z4) | inactive: 0.314
36 | MARC1 C273 (UniProt Q5VT66) | inactive: -0.0159
37 | TTC37 C600 (UniProt Q6PGP7) | inactive: -0.00516
